Data as given in the supplement of paper PMC3334620.
In all, about 33,000 sequences were measured (“E-score (-0.5 to 0.5)”: median about -0.0059, highest 2% from about 0.26 on). This is one part of the list.

molecular target: T1, Cin5 (UniProt P40917); assay: PBM E-score (8-mer binding enrichment) (E-score (-0.5 to 0.5)); higher = stronger / more preferred TF binding; settings: protein concentration: 100 nM; construct: GST-full length
T1 sequence: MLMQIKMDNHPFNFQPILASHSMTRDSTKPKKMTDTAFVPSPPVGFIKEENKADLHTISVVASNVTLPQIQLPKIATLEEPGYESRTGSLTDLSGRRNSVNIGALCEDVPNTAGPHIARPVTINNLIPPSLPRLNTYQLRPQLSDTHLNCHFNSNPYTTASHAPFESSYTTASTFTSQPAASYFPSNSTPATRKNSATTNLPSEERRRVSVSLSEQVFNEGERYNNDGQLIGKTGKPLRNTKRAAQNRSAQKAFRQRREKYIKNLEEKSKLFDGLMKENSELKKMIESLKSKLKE
In short: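 GST-tagged yeast TFs (full-length or DNA-binding domain) were made by PURExpress in vitro transcription/translation and applied at about 100-200 nM to universal all-10-mer Agilent arrays. The arrays were made double-stranded by primer extension, on fresh or once-stripped slides. Bound protein was detected with fluorescent anti-GST, and scans were normalised with masliner. Each ungapped eight-base word, pooled with its reverse complement, received an E-score (modified Wilcoxon-Mann-Whitney statistic) from the Universal PBM Analysis Suite.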

Sequence	PBM E-score
CCGAATCA	-0.017
GCCATTAA	0.0155
TAGGGGAA	-0.0332
ACAGTCCC	-0.253
ACCCCATA	0.00853
CCTTGAAG	-0.139
AGAAGGAT	0.0541
GCGTTATA	0.0906
GACTCCCA	-0.312
CACATCAA	0.194
TACGTGCA	0.0794
GAATCAAC	0.211
AGCTCTAG	-0.0574
CATGGGTC	-0.0514
GGGTCGTA	-0.122
GACACGAA	-0.0198
CTCAGGCC	-0.282
CGTGCCTA	-0.177
ACCGCAAC	0.247
CGTATATC	0.00536
ATCCCCCC	-0.433
CGCCAGGC	-0.0298
AGTACTCG	0.153
ACTCCGCT	-0.0398
CTTTTCCA	-0.113

Sequence	PBM E-score
AGTTCACA	-0.0198
AGGTTAGA	-0.0977
TCAATCAA	0.173
ATGGAGTG	-0.0775
ACTATCAT	0.199
AAACGGCT	-0.0602
AAGTGAAG	0.0767
TACCACAA	0.151
AGCAGGCA	-0.193
AGTCGATC	-0.00635
TCCTAACA	0.0338
AAAACACC	0.0481
ACGACAAA	0.159
ACGTAGCG	-0.214
CTTCAGCC	-0.156
CAAGGTCG	0.00633
AAGAGTCT	-0.0712
CGAGTTAA	0.15
CGGGCCTC	0.0182
CACTGAAG	-0.00773
AATTGGTA	0.0713
CCATTAGC	-0.0184
CGATTCAG	0.0171
GCTGTCTA	-0.101
TCCCGACA	0.049

Sequence	PBM E-score
AATAAGAA	0.226
AGACTTCA	-0.21
GTCCTCTA	-0.217
AAAGAATA	0.17
ATGGGCCC	-0.246
CAACGGAC	-0.105
AGGGCGTC	-0.16
CTTCGTGC	-0.0972
ATTTTACA	-0.068
CTCCCCTA	-0.0952
CGCCGCAG	-0.0953
CGCTTGCA	0.0308
CTCAATCC	0.0626
GGCGACTA	-0.123
TAGCCTCA	-0.0491
ACGCCAGC	-0.155
ATTACCGG	-0.0367
TCTAGTAA	0.205
CATCCTGG	0.149
ATGGATGG	0.011
CGGCTCGA	0.0213
ATTAGCAG	0.0842
CCATTGGC	-0.129
AGTTTCGA	-0.054
AGACCTGG	-0.0148

Sequence	PBM E-score
TCATTAGA	0.00334
TCGCGCCA	-0.0143
ATTACTAC	0.145
ACAGCCGT	-0.0791
CGTAGGAA	-0.118
AAGTTATA	0.0673
ATGCTAGA	-0.138
ACCGAACC	-0.213
GGCGTATA	-0.0201
ACAAAGCG	0.0796
GATTAACA	0.252
ACGGAGAC	0.031
GCTAGCGA	-0.0157
TACCTACA	0.103
AACTTTCC	0.133
ACTAACCG	-0.058
ATAAGAAA	0.156
ACCCGAGT	0.0384
TAGTCGGA	0.0932
CTAACTCC	-0.0985
TTATCGAA	0.0654
ATCGTAGA	-0.0908
AACGAGAA	0.171
AACGAAAA	0.201
AGGTGGTG	-0.0654

Sequence	PBM E-score
CTATAGAA	-0.0388
GATGATCC	0.0125
CCGGAGAG	-0.166
CTAACCGC	-0.16
ATGCTTTC	0.155
GGTATTTA	0.0824
AAAAGAAG	0.0481
GAACTTGA	0.0475
ACGGACCG	-0.227
ATTTCCCC	0.0813
GATGCACA	-0.00351
GTTGTCGA	-0.0513
ATGATGTA	0.305
AGCACATA	0.0423
ACTCGGGC	-0.124
ATGCCTAA	-0.153
CTAACGTC	0.119
CGCTGGAG	-0.189
CACGAACG	-0.0149
ACCGCCTG	-0.161
ATCTACCA	0.24
GAGGACTA	-0.187
GAGTGACA	0.127
CCCACCAC	0.0747
GATGGTGA	-0.0298

Sequence	PBM E-score
AACCTCCA	-0.276
GACTGCGA	-0.0347
GCGGGAAC	-0.0927
AGGGTCGC	-0.156
GAACGAGC	0.0313
AATAAGCA	0.176
ACGCCAAG	-0.196
CCGGGCTC	-0.273
AATTATCA	0.251
AGGACACG	-0.0874
ATACGCAA	0.217
ACTGGGGA	-0.0554
AACTGGAC	-0.0445
AGTCTTGA	-0.104
AAGAAGCG	-0.153
CGATTCAC	0.00169
AACTTTCA	-0.0043
CTGACCGA	-0.11
GCTCTCCA	-0.225
AAAGAACC	-0.0517
GCAGCGTA	-0.109
AAAGGCCT	-0.313
TACTGATA	0.209
AGTCACAC	-0.0843
CTTTTTGC	0.116

Sequence	PBM E-score
AGATGTAG	0.0138
ATTTAGAC	0.00055
GCGCGTAA	0.214
CTAGTTCA	0.0732
AGATCGGC	-0.165
AGGGATAG	-0.0284
CAAGCTGG	-0.202
TAGATAGA	0.0443
TCATTCGA	0.206
ATTGCAAC	0.0487
CCAACGCC	-0.23
AAACCGGG	0.0431
AACCCCAG	0.0653
AACTGCGA	-0.103
ATTTTTCC	-0.0233
CTGGAAGA	0.0228
AACCCCCG	-0.352
AGGTGCGA	-0.15
GCTGCTGA	0.0794
AGAAAGAA	-0.00532
ACCACTTC	-0.0615
AAGCATCA	0.184
AACGCAAT	0.0777
CGGTGTAG	-0.0609
ATAGTACA	0.17

Sequence	PBM E-score
AGCTGCGC	0.00815
TAAATCTA	0.00614
AGGGAAGG	-0.293
CCATTCTC	-0.00689
ACTTGCGC	-0.0334
CGAGGTCA	-0.0217
GCTCCCGA	-0.217
CAAAATCA	0.104
TCTCAAGA	-0.0862
CGTATGGC	-0.026
GTCTTGGA	-0.112
AATAGAGC	0.153
GGCCCGGA	-0.219
CCGCGCCC	-0.1
AAGAGTAC	-0.0537
AGGCCGGC	-0.0664
CCCGTTAG	-0.276
ATATGAAT	0.167
ACGCAAAC	0.0223
ACCCCAGC	0.113
CCCGACAG	-0.0637
ATTACGAA	0.295
CGGCATAG	-0.0478
CCCATCAG	-0.165
TATTTTAA	0.21

Individual results from the results shown:
Under PBM E-score, AGTTCACA has the entry -0.0198
Under PBM E-score, CCCGACAG has the entry -0.0637
Under PBM E-score, TATTTTAA has the entry 0.21
Under PBM E-score, GCTCCCGA has the entry -0.217

2 records drawn at random from those above:
Sequence	PBM E-score
AGGGATAG	-0.0284
ATGATGTA	0.305

Remaining list, next part

Sequence	PBM E-score
ATACGTGA	0.08
ATGTCTAG	-0.0808
CCTCGGTA	-0.296
CCCAGCCA	0.025
ACGTCTTC	-0.0942
ACCTATGC	-0.0406
CGCGTTAG	-0.0956
ATGAACTA	0.179
AGGTGCTA	-0.0573
GATGGTGC	-0.359
TCCGGAGA	-0.139
ACCAACTA	0.159
CCACCTAG	-0.183
CATCATCG	0.204
AAGACCGC	-0.151
ATCTGACC	-0.0812
GAGTGATC	0.18
ATTTACGA	0.12
TAGGCAGA	0.0732
